Assay results reported in the supplement of paper PMC11732987, “Enantioselective OTUD7B fragment discovery through chemoproteomics screening and high-throughput optimisation” (Communications Chemistry, 2025).
The list shows a part of the results. The data scatter; read single values as rough.

Each target was assayed with ClCC(=O)N[C@@H]1CCCc2ccccc12 (assay: log2 mean competition ratio of IA-DTB cysteine labelling (DMSO/compound) (log2 ratio); higher = stronger cysteine engagement by compound). Conditions: 50 µM; treatment time: 4 h; cell line lysate: HEK293T.
Method: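 IA-DTB competitive cysteine chemoproteomics in HEK293T RIPA lysate. Lysates were treated with compound 29 or 30 at 50 or 200 µM for 4 h, then IA-DTB (500 µM, 1 h), trypsin-digested, NeutrAvidin-enriched and analysed by diaPASEF. Competition ratio = intensity DMSO / intensity compound (n=4 treated, n=64 DMSO); binding: mean log2 CR ≥ 1 and p ≤ 0.05 plus QC filters. Target is the cysteine site.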
CLASP2 C662 (UniProt O75122) was tested, and the “log2 mean competition ratio” value was -0.0989.
CLMN C445 was tested, and the “log2 mean competition ratio” value was -0.136.
With CPS1 C225 (UniProt P31327) the “log2 mean competition ratio” value was -0.0492.
With COBL C1032 (UniProt O75128) the “log2 mean competition ratio” value was -0.412.
For CPSF3 C345 (UniProt Q9UKF6), the “log2 mean competition ratio” value was -0.354.
With COG7 C475 (UniProt P83436) the “log2 mean competition ratio” value was 0.0616.
CLTCL1 C934 (UniProt P53675) was tested, and the “log2 mean competition ratio” value was 0.00312.
CNKSR3 C191 was tested, and the “log2 mean competition ratio” value was -0.153.
In the case of COG2 C358 (UniProt Q14746), the “log2 mean competition ratio” value is reported as -0.166.
With COBLL1 C177 (UniProt Q53SF7) the “log2 mean competition ratio” value was 0.295.
For CIC C1432, the “log2 mean competition ratio” value was 0.026.
In the case of CLEC16A C657 (UniProt Q2KHT3), the “log2 mean competition ratio” value is reported as -0.0858.
In the case of CPSF4 C41 (UniProt O95639), the “log2 mean competition ratio” value is reported as 0.134.
With CLGN C511 (UniProt O14967) the “log2 mean competition ratio” value was -0.133.
With COBL C654 (UniProt O75128) the “log2 mean competition ratio” value was -0.00865.
For COPG1 C169 (UniProt Q9Y678), the “log2 mean competition ratio” value was 0.0793.
For COIL C126 (UniProt P38432), the “log2 mean competition ratio” value was -0.198.
With CPSF6 C476 (UniProt Q16630) the “log2 mean competition ratio” value was -0.212.
With COQ7 C137 (UniProt Q99807) the “log2 mean competition ratio” value was 0.0604.
For CIAO1 C322 (UniProt O76071), the “log2 mean competition ratio” value was 0.37.
With COLEC12 C27 the “log2 mean competition ratio” value was -0.00424.
In the case of CHST11 C128 (UniProt Q9NPF2), the “log2 mean competition ratio” value is reported as 0.404.
COQ8A C620 (UniProt Q8NI60) was tested, and the “log2 mean competition ratio” value was 0.327.
For CRBN C205 (UniProt Q96SW2), the “log2 mean competition ratio” value was 0.29.
COPB2 C741 (UniProt P35606) was tested, and the “log2 mean competition ratio” value was 0.0857.
With CKAP5 C592 (UniProt Q14008) the “log2 mean competition ratio” value was -0.26.
For COMMD6 C35 (UniProt Q7Z4G1), the “log2 mean competition ratio” value was -0.0391.
For CLK3 C321 (UniProt P49761), the “log2 mean competition ratio” value was -0.0113.
